Source: patent USRE35053E, “Amines useful in producing pharmaceutically active CNS compounds” (The Upjohn Company, priority 1992, dated 1995)
Structures can show the parent of a compound that is named as a salt. Some results were stated once for a whole list of compounds, not compound by compound. For at least one compound, name, drawing or mass did not settle the structure.

Tested on: angiogenesis
Experiment: fertile egg or chick embryo assay of Folkman (inhibition of angiogenesis / tumor growth)
Type: in vivo
Settings: chick embryo; 50 μg/10 μl with heparin; avascular zone 4 mm or greater
Description: According to this procedure compounds which are considered to be "active" (i.e, antiangiogenic) give an avascular zone of 4 mm or greater in some embryos when tested at 50 μg/10 μl in the presence of 50 μg/10 μ of heparin.

`CCN(CC)c1cc(N2CCN(CC(=O)[C@@]3(O)CC[C@H]4[C@@H]5CCC6=CC(=O)CC[C@]6(C)C5=CC[C@@]43C)CC2)nc(N)n1` [Example 4, 21-[4-[2.Amino-6-(diethylamino)-4-pyrimidinyl]1-piperazinyl]-17α-hydroxypregna-4,9(11)-diene-3,20-dione] was tested, and the inhibition of angiogenesis was “demonstrate inhibition of angiogenesis”.

`C[C@]12CCC(=O)C=C1CC[C@@H]1C2=CC[C@@]2(C)[C@H]1CC[C@]2(O)C(=O)CN1CCC(O)(c2ccc(C(F)(F)F)cc2)CC1` [Example 5, 17α-Hydroxy-21-[4-hydroxy-4 (4-trifiuoromethyl)phenyl 1-piperidinyl]pregna-4,9(11)-diene-3 20-dione] was tested, and the inhibition of angiogenesis was “demonstrate inhibition of angiogenesis”.

In the case of `C[C@]12CCC(=O)C=C1CC[C@@H]1C2=CC[C@@]2(C)[C@H]1CC[C@]2(O)C(=O)CN1CCN(c2ncccn2)CC1` [Example 8, 17α-Hydroxy-21-[4-(2-pyrimidinyl)-1-piperazinyl]pregna-4,9(11) -diene-3,20-dione], the inhibition of angiogenesis is reported as “demonstrate inhibition of angiogenesis”.

In the case of `C[C@]12CCC(=O)C=C1CC[C@@H]1C2=CC[C@@]2(C)[C@H]1CC[C@]2(O)C(=O)CN1CCN(C(=O)c2ccccc2C(=O)O)CC1` [Example 9, 17α-Hydroxy-21-[4-(2.carboxybenzoyl)-1-piperazinyl]-pregna-4,9(11)-diene-3,20-dione], the inhibition of angiogenesis is reported as “demonstrate inhibition of angiogenesis”.

In the case of `C[C@]12CCC(=O)C=C1CC[C@@H]1C2=CC[C@@]2(C)[C@H]1CC[C@]2(O)C(=O)CN1CCN(C(=O)Nc2cccc(Cl)c2)CC1` [Example 10, 17α-Hydroxy-21-[4-[[(3-chlorophenyl)amino]carbonyl]-1-piperazinyl]pregna-4,9(11)-diene-3,20-dione], the inhibition of angiogenesis is reported as “demonstrate inhibition of angiogenesis”.

`CCN(CC)c1nc(N2CCCC2)cc(N2CCN(CC(=O)[C@@]3(O)CC[C@H]4[C@@H]5CCC6=CC(=O)CC[C@]6(C)C5=CC[C@@]43C)CC2)n1` [Example 14, 21-[4-[2-(Diethylamino)-6-(1-pyrrolidinyl)-4-pyrimidinyl]-pyrimidinyl]-1-piperazinyl]-17α-hydroxy-pregna-4,9(11)-diene-3,20-dione dihydrochloride hydrate] was tested, and the inhibition of angiogenesis was “demonstrate inhibition of angiogenesis”.

`CCN(CC)c1cc(N2CCN(CC(=O)[C@@]3(O)CC[C@H]4[C@@H]5CCC6=CC(=O)CC[C@]6(C)C5=CC[C@@]43C)CC2)nc(N(CC)CC)n1` [Example 16, 17α-Hydroxy-21-[4-[2,6-bis(diethylamino)pyrimidinyl]-1-piperazinyl]pregna4,9(11)-diene-3,20-dione dihydro-chloridehydrate] was tested, and the inhibition of angiogenesis was “demonstrate inhibition of angiogenesis”.

In the case of `C[C@]12C=CC(=O)C=C1CC[C@@H]1[C@@H]2[C@@H](O)C[C@@]2(C)[C@H]1CC[C@]2(O)C(=O)CN1CCN(c2ccc(F)cc2)CC1` [Example 26, 11β, 17α-dihydroxy-21-[4-(4-fluorophenyl)-1-piperazinyl]pregna-1,4-diene-3,20-dione dihydrochloride], the inhibition of angiogenesis is reported as “demonstrate inhibition of angiogenesis”.

With `COc1ccc(N2CCN(CC(=O)[C@@]3(O)CC[C@H]4[C@@H]5CCC6=CC(=O)C=C[C@]6(C)[C@H]5[C@@H](O)C[C@@]43C)CC2)cc1` [Example 27, 11β,17α-dihydroxy-21-[4-(4-methoxyphenyl)-1-piperazinyl]pregna-1,4-diene-3,20-dione dihydrochloride] the inhibition of angiogenesis was “demonstrate inhibition of angiogenesis”.

With `CC(C)(C)CC(=O)O[C@@H]1C[C@@]2(C)[C@@H](CC[C@]2(O)C(=O)CN2CCN(c3ccccn3)CC2)[C@@H]2CCC3=CC(=O)CC[C@]3(C)[C@H]21.Cl.Cl` [Example 28] the inhibition of angiogenesis was “demonstrate inhibition of angiogenesis”.

`C[C@]12CCC(=O)C=C1CC[C@@H]1[C@@H]2[C@H](O)C[C@@]2(C)[C@H]1CC[C@]2(O)C(=O)CN1CCN(c2ccc(F)cc2)CC1` [Example 29, 21-[4-(4-fluorophenyl)-1-piperazinyl]-11α,17α-dihydroxypregn-4-ene-3,20-dione dihydrochloride] was tested, and the inhibition of angiogenesis was “demonstrate inhibition of angiogenesis”.

In the case of `COc1ccc(N2CCN(CC(=O)[C@@]3(O)CC[C@H]4[C@@H]5CCC6=CC(=O)CC[C@]6(C)[C@H]5[C@H](O)C[C@@]43C)CC2)cc1` [Example 30, 11α,17α-dihydroxy-21-[4-(4-methoxyphenyl)-1-piperazinyl]pregn-4-ene-3,20-dione dihydrochloride], the inhibition of angiogenesis is reported as “demonstrate inhibition of angiogenesis”.

With `C[C@]12CCC(=O)C=C1CC[C@@H]1C2=CC[C@@]2(C)[C@H]1CC[C@]2(O)C(=O)CN1CCCCC1C(=O)O` (stereo partly drawn) [Example 39, 21-[1-(2-carboxy)piperidinyl]-17α-hydroxypregna-4.9(11)-diene-3,20-dione] the inhibition of angiogenesis was “demonstrate inhibition of angiogenesis”.

For `C[C@H]1C[C@@H]2C(=CC[C@@]3(C)[C@H]2CC[C@]3(O)C(=O)CN2CCN(c3ccccn3)CC2)[C@@]2(C)C=CC(=O)C=C12` [Example 46, 17α-hydroxy-6α-methyl-21-[4-(2-pyridinyl)-1-piperazinyl]pregna-1,4,9(11)-triene-3,20-dione(E)-2-butenodioate salt], the inhibition of angiogenesis was “demonstrate inhibition of angiogenesis”.

In the case of `C[C@H]1C[C@@H]2C(=CC[C@@]3(C)[C@H]2CC[C@]3(O)C(=O)CN2CCN(c3cc(N4CCCC4)nc(N4CCCC4)n3)CC2)[C@@]2(C)C=CC(=O)C=C12` [Example 47, 17α-hydroxy-6α-methyl-21-[4-[2,6-bis(1-pyrrolidinyl)-4-pyrimidinyl-1-piperazinyl)pregna-1,4,9(11)-triene-3,20-dione,(E)-2-butenodioate salt], the inhibition of angiogenesis is reported as “demonstrate inhibition of angiogenesis”.

In the case of `COc1ccc(CCN(CC(=O)[C@@]2(O)CC[C@H]3[C@@H]4CCC5=CC(=O)CC[C@]5(C)C4=CC[C@@]32C)Cc2ccc(N(C)C)cc2)cc1OC` [Example 51, 17α-hydroxy-21-[[2-(3,4-dimethoxyphenyl)ethyl]-4-(dimethylamino)phenyl]methyl]amino]pregna-4,9(11)-3,20-dione hydrochloride], the inhibition of angiogenesis is reported as “demonstrate inhibition of angiogenesis”.

In the case of `CCN(CC)c1cc(N2CCN(CC(=O)[C@@]3(O)CC[C@H]4[C@@H]5CCC6=CC(=O)CC[C@]6(C)[C@H]5CC[C@@]43C)CC2)nc(N(CC)CC)n1` [Example 53, 21-[4-[2,-bis(diethylamino)-4-pyrimidinyl]-1-piperazinyl]-17α-hydroxypregn-4-ene-3,20-dione], the inhibition of angiogenesis is reported as “demonstrate inhibition of angiogenesis”.

In the case of `C[C@]12CCC(=O)C=C1CC[C@@H]1C2=CC[C@@]2(C)[C@H]1CC[C@]2(O)C(=O)CN1CCN(Cc2ccccn2)CC1` [Example 54, 17α-hydroxy-21-[4-(2-pyridinylmethyl)-1-piperazinyl]-pregna-4,9(11)-diene-3,20-dione(E)-2-butenedioate 1:1 salt], the inhibition of angiogenesis is reported as “demonstrate inhibition of angiogenesis”.

In the case of `CN(C)c1ccc(CN2CCN(CC(=O)[C@@]3(O)CC[C@H]4[C@@H]5CCC6=CC(=O)CC[C@]6(C)C5=CC[C@@]43C)CC2)cc1` [Example 55, 17α-hydroxy-21-[4-[[4-(dimethylamino)phenyl]methyl]-1-1-piperazinyl]pregna-4,9(11)-diene-3,20-dione(E)-2-butenedioate 1:1 salt], the inhibition of angiogenesis is reported as “demonstrate inhibition of angiogenesis”.
